Laboratory results as given in US20230331781A1, “PAR4 DERIVED PEPTIDES, ANALOGS AND USES THEREOF” (Yissum Research Development Company of the Hebrew …, priority 2019, published 2023).
Changes are numbered by the printed parent chain. These are yes or no findings as the source states them, for the method shown. Binding seen in cells or lysates may run through a third protein. Some results given as binding are weak or reduced against the parent protein; the word gives no strength.

Amino acid sequences for entries named in this document (tags omitted). Residues count along the entry.
UniProt P55085, residues 37-397: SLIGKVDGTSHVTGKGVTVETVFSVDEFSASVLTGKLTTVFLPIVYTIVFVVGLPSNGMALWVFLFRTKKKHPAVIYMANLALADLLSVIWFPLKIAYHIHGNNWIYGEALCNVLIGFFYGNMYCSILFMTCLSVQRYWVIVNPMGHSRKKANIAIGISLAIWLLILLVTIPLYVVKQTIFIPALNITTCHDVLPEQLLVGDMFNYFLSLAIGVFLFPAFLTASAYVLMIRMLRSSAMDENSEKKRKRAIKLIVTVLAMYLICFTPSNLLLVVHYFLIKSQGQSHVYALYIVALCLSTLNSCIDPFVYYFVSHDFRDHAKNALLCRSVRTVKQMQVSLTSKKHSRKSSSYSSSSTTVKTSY
UniProt P31749: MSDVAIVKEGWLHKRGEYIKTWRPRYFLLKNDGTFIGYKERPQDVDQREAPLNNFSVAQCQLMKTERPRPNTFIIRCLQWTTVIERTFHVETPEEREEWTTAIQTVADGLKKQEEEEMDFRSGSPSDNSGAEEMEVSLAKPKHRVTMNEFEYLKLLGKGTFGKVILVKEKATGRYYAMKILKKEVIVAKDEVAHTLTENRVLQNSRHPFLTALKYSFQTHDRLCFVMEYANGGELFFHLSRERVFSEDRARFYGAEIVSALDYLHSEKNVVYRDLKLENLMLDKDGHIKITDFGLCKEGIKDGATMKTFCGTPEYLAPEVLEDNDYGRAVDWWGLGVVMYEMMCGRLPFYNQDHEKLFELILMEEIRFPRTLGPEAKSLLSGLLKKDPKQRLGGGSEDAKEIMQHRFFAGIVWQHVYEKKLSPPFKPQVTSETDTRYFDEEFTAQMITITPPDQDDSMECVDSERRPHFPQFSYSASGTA

Columns and labels:
flg-Par4MutE346A (human) [1] = biological target: T1, flg-Par4MutE346A (human) (UniProt Q96RI0); test: co-IP: anti-flg IP from HEK293 cells transfected with flg-Par4MutE346A, anti-Akt blot (FIG. 4E)
T1 sequence (looked up): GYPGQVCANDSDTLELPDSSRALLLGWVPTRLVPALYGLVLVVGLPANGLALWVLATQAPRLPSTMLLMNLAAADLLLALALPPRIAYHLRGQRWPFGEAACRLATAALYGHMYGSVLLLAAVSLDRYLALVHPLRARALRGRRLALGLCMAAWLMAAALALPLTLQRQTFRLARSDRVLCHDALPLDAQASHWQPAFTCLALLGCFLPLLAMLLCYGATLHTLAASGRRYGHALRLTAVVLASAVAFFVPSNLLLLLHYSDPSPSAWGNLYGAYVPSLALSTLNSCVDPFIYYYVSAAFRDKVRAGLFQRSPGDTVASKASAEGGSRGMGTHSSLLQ

[2] = biological target: T2, PAR4 (protease-activated receptor 4), wt flg-hPar4 (human) (UniProt Q96RI0); test: co-IP: anti-flg IP from HEK293 cells transfected with wt flg-Par4, anti-Akt blot (FIG. 4E, 4F)
T2 sequence (looked up): T1 sequence (looked up) with A299E

flg-Par4MutE346A (human) [3] = biological target: T1, flg-Par4MutE346A (human); test: co-IP: anti-flg IP from HEK293 cells transfected with the mutant, anti-Akt blot (FIG. 4E)
[4] = biological target: T2, PAR4 (protease-activated receptor 4), wt flg-hPar4 (human); test: co-IP: anti-flg IP of flg-hPar4 from HU cell lysates after AYPGKF activation, anti-Akt Western blot (FIG. 1)
[5] = biological target: T2, PAR4 (protease-activated receptor 4), wt flg-hPar4 (human); test: co-IP, anti-flg IP and anti-Akt blot (FIG. 3D, 4F)
[6] = biological target: PAR2 (protease-activated receptor 2), flag-hPar2 (human) (UniProt P55085); test: co-IP from HEK 293 cells transfected with flag-hPar2 after SLIGKV activation, anti-Akt blot (FIG. 11)

Measured: binding

Akt/PKB (protein kinase B) (from UniProt P31749 1-480) (enzyme)
binds: flg-Par4MutE346A (human) [1] | [2] | flg-Par4MutE346A (human) [3] | [4] | [5] | [6]
